Data as given in publication PMC7397857.
Results are given in words; binding and its absence hold for the method and conditions named. Binding seen in cells or lysates may run through a third protein. Some results given as binding are weak or reduced against the parent protein; the word gives no strength.

The chains behind the UniProt entries cited, without tags or fusion partners.
UniProt P60468: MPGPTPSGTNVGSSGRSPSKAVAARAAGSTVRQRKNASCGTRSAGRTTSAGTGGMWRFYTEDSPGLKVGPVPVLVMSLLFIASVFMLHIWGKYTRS
UniProt Q9HAU5: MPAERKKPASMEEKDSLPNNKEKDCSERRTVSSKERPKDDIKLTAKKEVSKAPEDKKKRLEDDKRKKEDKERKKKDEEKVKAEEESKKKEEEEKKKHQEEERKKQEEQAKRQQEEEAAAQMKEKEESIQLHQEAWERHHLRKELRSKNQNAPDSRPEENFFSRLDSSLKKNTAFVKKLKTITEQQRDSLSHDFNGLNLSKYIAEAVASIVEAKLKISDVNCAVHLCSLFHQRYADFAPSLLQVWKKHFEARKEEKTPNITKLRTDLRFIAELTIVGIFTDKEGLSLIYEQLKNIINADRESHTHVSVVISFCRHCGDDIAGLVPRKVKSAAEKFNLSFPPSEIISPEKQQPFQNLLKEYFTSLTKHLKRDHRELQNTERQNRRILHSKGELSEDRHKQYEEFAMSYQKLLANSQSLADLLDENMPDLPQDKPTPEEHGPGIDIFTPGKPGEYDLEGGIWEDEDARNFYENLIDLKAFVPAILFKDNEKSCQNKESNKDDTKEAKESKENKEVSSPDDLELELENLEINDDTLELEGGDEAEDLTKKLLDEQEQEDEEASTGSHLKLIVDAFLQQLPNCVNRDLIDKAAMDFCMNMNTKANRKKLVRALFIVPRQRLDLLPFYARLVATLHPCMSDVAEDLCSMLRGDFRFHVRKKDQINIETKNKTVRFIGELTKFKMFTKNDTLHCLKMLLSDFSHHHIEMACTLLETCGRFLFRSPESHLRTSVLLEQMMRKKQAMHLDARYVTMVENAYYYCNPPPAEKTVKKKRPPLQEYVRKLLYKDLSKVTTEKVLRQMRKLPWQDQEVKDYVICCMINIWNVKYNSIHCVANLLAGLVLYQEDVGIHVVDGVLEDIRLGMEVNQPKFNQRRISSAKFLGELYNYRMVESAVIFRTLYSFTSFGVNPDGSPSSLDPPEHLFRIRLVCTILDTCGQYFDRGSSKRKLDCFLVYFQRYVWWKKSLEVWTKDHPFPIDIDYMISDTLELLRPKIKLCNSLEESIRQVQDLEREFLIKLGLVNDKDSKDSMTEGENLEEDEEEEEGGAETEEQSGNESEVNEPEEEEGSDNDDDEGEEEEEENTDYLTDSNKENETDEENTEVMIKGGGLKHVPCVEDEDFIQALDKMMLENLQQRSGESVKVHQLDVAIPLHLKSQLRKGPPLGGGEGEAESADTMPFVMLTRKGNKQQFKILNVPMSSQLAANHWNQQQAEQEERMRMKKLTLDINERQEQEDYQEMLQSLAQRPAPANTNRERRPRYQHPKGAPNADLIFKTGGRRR

Assays:
[1] = target: T1, UPF1 C126S (human) (UniProt Q92900); assay: co-IP; tagged UPF1 (wild type or mutant) cotransfected with T7-NBAS, HeLa cells, in the presence or absence of RNases; source of UPF2 not stated
T1 sequence: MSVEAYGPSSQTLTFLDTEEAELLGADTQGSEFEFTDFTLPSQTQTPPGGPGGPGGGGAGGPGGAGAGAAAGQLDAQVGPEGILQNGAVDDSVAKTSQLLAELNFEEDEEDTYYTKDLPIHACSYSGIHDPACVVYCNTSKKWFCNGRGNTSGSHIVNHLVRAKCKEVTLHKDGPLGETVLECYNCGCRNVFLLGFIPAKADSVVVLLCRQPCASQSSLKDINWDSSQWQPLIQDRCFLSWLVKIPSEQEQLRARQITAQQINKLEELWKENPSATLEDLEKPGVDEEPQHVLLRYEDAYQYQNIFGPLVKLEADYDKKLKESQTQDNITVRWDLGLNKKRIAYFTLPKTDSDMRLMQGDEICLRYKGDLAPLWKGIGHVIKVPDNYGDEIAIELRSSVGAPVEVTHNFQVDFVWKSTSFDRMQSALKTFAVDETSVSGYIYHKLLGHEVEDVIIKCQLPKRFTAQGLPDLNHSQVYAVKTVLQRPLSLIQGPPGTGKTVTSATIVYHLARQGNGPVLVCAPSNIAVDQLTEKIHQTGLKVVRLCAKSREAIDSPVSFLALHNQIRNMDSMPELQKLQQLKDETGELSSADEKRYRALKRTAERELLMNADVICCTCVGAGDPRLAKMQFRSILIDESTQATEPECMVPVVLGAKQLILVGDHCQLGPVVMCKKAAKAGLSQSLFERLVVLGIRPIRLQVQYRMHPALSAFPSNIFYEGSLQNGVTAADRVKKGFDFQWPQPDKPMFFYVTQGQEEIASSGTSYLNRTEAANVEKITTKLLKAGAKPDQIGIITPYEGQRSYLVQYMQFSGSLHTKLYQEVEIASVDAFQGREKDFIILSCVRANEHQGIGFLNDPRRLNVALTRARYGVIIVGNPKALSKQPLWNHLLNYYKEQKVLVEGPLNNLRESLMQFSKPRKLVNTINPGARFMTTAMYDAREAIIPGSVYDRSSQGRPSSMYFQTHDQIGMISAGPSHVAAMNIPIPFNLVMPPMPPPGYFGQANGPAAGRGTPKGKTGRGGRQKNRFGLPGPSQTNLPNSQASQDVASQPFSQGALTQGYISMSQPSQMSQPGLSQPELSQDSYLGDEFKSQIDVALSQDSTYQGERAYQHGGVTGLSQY

[2] = target: SEC61B (human (endogenous in HeLa)) (UniProt P60468); assay: proximity ligation; Duolink PLA on fixed, permeabilised cells with primary antibodies to the two proteins

binding [1]: no binding | binding [2]: binds weakly
Substance: UPF2 (from UniProt Q9HAU5 1-1272)
